Results are given in words; binding and its absence hold for the method and conditions named. Binding seen in cells or lysates may run through a third protein. Some entries that bind do so weakly or less than the wild type.

Amino acid sequences for entries named in this document (tags omitted).
UniProt Q99836: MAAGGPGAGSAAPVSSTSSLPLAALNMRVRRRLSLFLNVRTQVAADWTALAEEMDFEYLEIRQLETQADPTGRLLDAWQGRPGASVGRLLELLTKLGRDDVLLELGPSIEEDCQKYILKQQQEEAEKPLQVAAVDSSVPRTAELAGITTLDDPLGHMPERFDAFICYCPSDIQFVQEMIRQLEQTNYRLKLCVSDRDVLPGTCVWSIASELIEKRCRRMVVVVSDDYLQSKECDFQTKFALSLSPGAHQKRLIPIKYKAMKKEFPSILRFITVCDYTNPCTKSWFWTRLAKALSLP
UniProt Q06945: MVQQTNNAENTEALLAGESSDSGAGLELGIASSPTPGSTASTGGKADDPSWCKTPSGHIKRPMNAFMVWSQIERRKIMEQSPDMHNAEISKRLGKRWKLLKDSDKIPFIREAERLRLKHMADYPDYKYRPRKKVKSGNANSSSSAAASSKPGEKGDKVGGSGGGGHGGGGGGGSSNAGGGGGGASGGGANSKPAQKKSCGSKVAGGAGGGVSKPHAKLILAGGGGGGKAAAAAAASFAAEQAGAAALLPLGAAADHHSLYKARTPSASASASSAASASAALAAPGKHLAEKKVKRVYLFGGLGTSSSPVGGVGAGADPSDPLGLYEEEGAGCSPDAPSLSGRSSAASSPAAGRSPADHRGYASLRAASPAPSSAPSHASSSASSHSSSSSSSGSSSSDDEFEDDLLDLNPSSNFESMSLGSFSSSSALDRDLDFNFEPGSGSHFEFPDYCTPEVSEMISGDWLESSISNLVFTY
UniProt P51617: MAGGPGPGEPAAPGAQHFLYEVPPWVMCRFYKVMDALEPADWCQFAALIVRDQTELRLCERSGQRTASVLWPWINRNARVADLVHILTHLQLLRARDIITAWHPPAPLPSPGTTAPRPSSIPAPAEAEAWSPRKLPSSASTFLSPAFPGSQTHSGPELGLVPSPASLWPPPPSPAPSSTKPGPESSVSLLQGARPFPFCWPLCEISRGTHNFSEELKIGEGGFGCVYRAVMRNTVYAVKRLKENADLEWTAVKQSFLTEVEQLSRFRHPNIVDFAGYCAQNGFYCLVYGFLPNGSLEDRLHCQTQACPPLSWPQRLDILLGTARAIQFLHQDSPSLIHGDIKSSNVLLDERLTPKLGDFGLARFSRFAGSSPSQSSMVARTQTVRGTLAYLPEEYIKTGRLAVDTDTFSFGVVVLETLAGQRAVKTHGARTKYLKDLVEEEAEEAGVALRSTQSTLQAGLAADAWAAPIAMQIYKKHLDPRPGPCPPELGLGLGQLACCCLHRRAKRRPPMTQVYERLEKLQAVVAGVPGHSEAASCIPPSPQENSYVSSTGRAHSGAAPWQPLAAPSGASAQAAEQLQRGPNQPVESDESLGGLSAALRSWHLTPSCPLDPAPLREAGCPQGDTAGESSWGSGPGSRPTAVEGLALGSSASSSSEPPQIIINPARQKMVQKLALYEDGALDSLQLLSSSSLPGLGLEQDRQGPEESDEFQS
UniProt P25963: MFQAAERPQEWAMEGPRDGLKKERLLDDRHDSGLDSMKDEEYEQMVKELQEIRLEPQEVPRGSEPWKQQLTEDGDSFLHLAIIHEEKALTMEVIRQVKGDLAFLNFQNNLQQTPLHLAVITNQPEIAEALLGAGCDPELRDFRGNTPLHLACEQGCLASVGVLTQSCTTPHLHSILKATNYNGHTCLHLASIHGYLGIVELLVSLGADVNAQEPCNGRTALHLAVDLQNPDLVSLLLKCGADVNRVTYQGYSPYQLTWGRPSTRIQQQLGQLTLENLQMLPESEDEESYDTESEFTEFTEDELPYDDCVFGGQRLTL

In experiment [1] the target is Myeloid differentiation primary response gene 88 (MyD88) (human (endogenous in L02)) (UniProt Q99836). As to the kind of experiment: co-IP.
The target in experiment [2] is FLAG-Sox4 (sex-determining region Y-box 4) (UniProt Q06945). As to the kind of experiment: co-IP; HEK293T cells transfected with pFlag-Sox4 or its deletion mutants; lysed in RIPA buffer (20 mM Tris-HCl pH7.4, 150 mM NaCl, 1 mM EDTA, 1% Triton-X-100); precipitated with antibody to Flag and protein G Sepharose, 4°C; blotted for endogenous IKKα, IKKβ, IKKα/β or IκBα.

With “IL-1 receptor-associated kinase 1 (IRAK1) (from UniProt P51617 1-712) (enzyme)”, the binding result in experiment [1] is “binds”.

For IκBα (from UniProt P25963 1-317), in experiment [2], the binding result is given as “no binding”.

B1: IKKβ (enzyme, UniProt O14920 1-756)
chain: MSWSPSLTTQTCGAWEMKERLGTGGFGNVIRWHNQETGEQIAIKQCRQELSPRNRERWCLEIQIMRRLTHPNVVAARDVPEGMQNLAPNDLPLLAMEYCQGGDLRKYLNQFENCCGLREGAILTLLSDIASALRYLHENRIIHRDLKPENIVLQQGEQRLIHKIIDLGYAKELDQGSLCTSFVGTLQYLAPELLEQQKYTVTVDYWSFGTLAFECITGFRPFLPNWQPVQWHSKVRQKSEVDIVVSEDLNGTVKFSSSLPYPNNLNSVLAERLEKWLQLMLMWHPRQRGTDPTYGPNGCFKALDDILNLKLVHILNMVTGTIHTYPVTEDESLQSLKARIQQDTGIPEEDQELLQEAGLALIPDKPATQCISDGKLNEGHTLDMDLVFLFDNSKITYETQISPRPQPESVSCILQEPKRNLAFFQLRKVWGQVWHSIQTLKEDCNRLQQGQRAAMMNLLRNNSCLSKMKNSMASMSQQLKAKLDFFKTSIQIDLEKYSEQTEFGITSDKLLLAWREMEQAVELCGRENEVKLLVERMMALQTDIVDLQRSPMGRKQGGTLDDLEEQARELYRRLREKPRDQRTEGDSQEMVRLLLQAIQSFEKKVRVIYTQLSKTVVCKQKALELLPKVEEVVSLMNEDEKTVVRLQEKRQKELWNLLKIACSKVRGPVSGSPDSMNASRLSQPGQLMSQPSTASNSLPEPAKKSEELVAEAHNLCTLLENAIQDTVREQDQSFTALDWSWLQTEEEEHSCLEQAS
B1: the binding entry in experiment [2] is given as “binds”.

The values are drawn from PMC7894441.
